# Assay results reported in PubChem BioAssay AID504444 (National Center for Advancing Translational Sciences (NCATS), 2011).
# Among all 360,000 compounds or so, about 7,500 (2.1%) were called active. Inconclusive results, whose numbers are uncertain, are shown with a selection of clear calls. Calls follow the shape of the dose curve; as a rule, active = well fitted inhibition curve with a large enough effect; inconclusive = small, poorly fitted or top-dose-only effect, or effect the other way; inactive = flat fitted curve, though single readings scatter. Where the call is inconclusive, the potency comes from a doubtful curve fit.
# Test: Nrf2 qHTS screen for inhibitors; also: nearly all actives have a fitted effect of over 60% in size
# Details: A549 ARE-Fluc reporter, luciferase luminescence, 18-24 h; activity change, negative = inhibition: at 46 µM (top of the series)
# Method in brief: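 Cells were seeded and rested 2 h, then exposed to compounds for 18-24 h. CellTiter-Fluor was read first as a viability measure. BugLite was added 15 min before the final luminescent read of ARE-luciferase activity in A549 cells.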
# % is scaled to controls: 0 for no effect and ±100 for the full control effect; potency is read from the fitted curve at half-maximal effect.
SMILES,Potency,"activity change, negative = inhibition"
Cc1cccn2cc(COc3ccc(-c4ccccc4)cc3)nc12,"inconclusive: 2.31 µM [activator, partial curve, poor fit]",–
Cc1cccc(-c2noc(-c3ccoc3C)n2)c1,"inconclusive: 9.2 µM [activator, partial curve]",–
Cc1cccc(NC(=O)CCSc2nc(C)cc(C)n2)c1,"inconclusive: 0.82 µM [falling, full curve, poor fit]",–
COc1ccc(Nc2oc(COc3ccc(Cl)cc3)nc2C#N)cc1,"inconclusive: 29.1 µM [falling, single point]",–
Cn1c(=O)[nH]c(=O)c2c1nc(NCc1ccco1)n2Cc1ccccc1Cl,"inconclusive: 0.291 µM [falling, full curve, poor fit]",–
Cn1c(O)c(N=Nc2nc(-c3ccccc3)cs2)c2ccccc21,"inconclusive: 5.17 µM [activator, full curve]",–
COc1ccc(NC(=O)Cn2c3ccc(OC)cc3c3nc4n(c(=O)c32)CCS4)cc1,active: 23.1 µM,–
O=C(c1n[nH]c2ccccc12)N1CCN(S(=O)(=O)c2ccc3ccccc3c2)CC1,"inconclusive: 16.4 µM [falling, partial curve, poor fit]",–
Cc1cc(OCC(=O)Nc2ccc(S(=O)(=O)NC3=NCCCCC3)cc2)c(C(C)C)cc1Cl,"inconclusive: 29.1 µM [falling, single point]",–
CCOC(=O)c1ccc(CNC(=O)CSc2nc(NC(=O)c3ccccc3)c3c(C)c(C)oc3n2)cc1,"inconclusive: 23.1 µM [falling, single point]",–
CSCc1ccc(C(=O)Nc2cccc(C)c2C)cc1,–,inactive: 19.5%
COc1cc(/C=C2/CCc3ccccc3C2=O)cc(OC)c1OC,active: 14.6 µM,–
O=C(O)c1sccc1Oc1ccc(NS(=O)(=O)c2cccc(F)c2)cc1,–,inactive: -2.28%
Cc1cccc(NC(=O)Nc2ccncc2)c1,"inconclusive: 1.64 µM [activator, full curve, poor fit]",–
COc1ccc(/C=C/C(=O)Nc2ccncc2)cc1OC,–,inactive: -22.1%
CCSc1oc(-c2ccco2)nc1S(=O)(=O)c1ccc(C)cc1,"inconclusive: 29.1 µM [falling, single point]",–
CCn1nc(C)c(NC(=O)/C=C/c2ccc(OC)c(COc3ccc(Br)cc3)c2)c1C,"inconclusive: 5.8 µM [falling, partial curve, poor fit]",–
COc1ccc(-n2ncc3c(NCc4ccccn4)ncnc32)cc1,"inconclusive: 18.4 µM [activator, single point]",–
O=C1C(Cl)=C(Nc2ccc(O)cc2)C(=O)c2ccccc21,"inconclusive: 23.1 µM [falling, single point]",–
CCOC(=O)c1c(NS(=O)(=O)c2cccc(OC)c2)sc2c1CCC2,"inconclusive: 8.2 µM [falling, partial curve, poor fit]",–
CCOc1ccccc1N1CCN(C(=O)c2cc3ccccc3cc2OC)CC1,–,inactive: 7.58%
COc1ccc(C(C)=O)cc1CSc1nc2ccccc2c(=O)n1-c1ccccc1C,"inconclusive: 23.1 µM [falling, single point]",–

# Part of the list above in order of heavy-atom count, rising.
SMILES,Potency,"activity change, negative = inhibition"
Cc1cccc(-c2noc(-c3ccoc3C)n2)c1,"inconclusive: 9.2 µM [activator, partial curve]",–
O=C1C(Cl)=C(Nc2ccc(O)cc2)C(=O)c2ccccc21,"inconclusive: 23.1 µM [falling, single point]",–
CCSc1oc(-c2ccco2)nc1S(=O)(=O)c1ccc(C)cc1,"inconclusive: 29.1 µM [falling, single point]",–

# Further compounds:

SMILES,Potency,"activity change, negative = inhibition"
COc1ccc(-c2cc(C(=O)Nc3ccccc3SC)no2)cc1OC,"inconclusive: 1.46 µM [falling, full curve, poor fit]",–
Nc1ccc(C(=O)N/N=C\c2cc(N=Nc3cccc4ccccc34)ccc2O)cc1,"inconclusive: 29.1 µM [falling, single point]",–
c1cncc(-c2nnc3sc(-c4ccco4)nn23)c1,"inconclusive: 6.51 µM [falling, partial curve, poor fit]",–
CCc1cccc(C)c1NS(=O)(=O)c1ccc2c(c1)CC(C)N2C(=O)C1CC1 (stereo not drawn),"inconclusive: 29.1 µM [falling, single point]",–
COc1ccc2c(C)cc3nncn3c2c1,"inconclusive: 6.51 µM [falling, single point]",–
CCc1ccc(-c2nc(NC(=O)c3ccc(OCC(=O)Nc4ccc(F)cc4)c(OC)c3)sc2C)cc1,–,inactive: -13.1%
O=C(NCCCCc1ccccc1)C12CN(Cc3ccccc3)CC1C(c1cccc([N+](=O)[O-])c1)=NO2 (stereo not drawn),–,inactive: -13.1%
COc1ccc(-c2noc(CSc3nc4ccccc4[nH]3)n2)cc1OC,active: 20.6 µM,–
Fc1cccc(CSc2ccc(-c3cccs3)nn2)c1,"inconclusive: 11.6 µM [activator, partial curve]",–
Cc1ccc(CN2CCN(C(=O)CCC(=O)Nc3nnc(C(C)C)s3)CC2)c(C)c1,"inconclusive: 20.6 µM [falling, single point]",–
O=C(NCC(c1cccnc1)N1CCOCC1)c1ccc2c(c1)OCO2 (stereo not drawn),"inconclusive: 20.6 µM [activator, partial curve]",–
O=S(=O)(Nc1ncnc2sc3c(c12)CCC3)c1ccc(Cl)s1,"inconclusive: 29.1 µM [falling, single point]",–
COC(=O)[C@@]12CCCN1[C@H](c1ccc(-c3ccc(OC)cc3)c(OC)c1)[C@@H]1C(=O)N(C)C(=O)[C@@H]12,–,inactive: -20.3%
CCN(CC)CCn1c2c(c(SCC(=O)Nc3ccccc3Cl)nc1=O)CCC2,–,inactive: 9.53%
CC1CCCN(C(=O)CNC(=O)c2sc3ccccc3c2Cl)C1 (stereo not drawn),"inconclusive: 2.91 µM [activator, full curve]",–
COc1cccc(Cl)c1NC(=O)N1CCN(c2ccnc3cc(Cl)ccc23)CC1,active: 23.1 µM,–
COc1cc(N2N=C(c3ccccc3)CC2c2ccccc2)c(C=O)cc1C=O (stereo not drawn),"inconclusive: 0.116 µM [falling, full curve, poor fit]",–
Cc1cccc(Cn2c(=O)n(-c3ccccc3C)c(=O)c3c2c2cc(C)ccc2n3C)c1,–,inactive: 28.5%
CC1Cc2cc(S(=O)(=O)N3CCC(C(=O)N4CCCCC4)CC3)ccc2N1C(=O)C1CC1 (stereo not drawn),"inconclusive: 20.6 µM [falling, single point]",–
CCOc1ccc(NC(=O)C(c2ccccn2)N(C(=O)CCl)c2ccc(OCC)cc2)cc1 (stereo not drawn),"inconclusive: 11.6 µM [activator, partial curve]",–
Cc1ccc2nc(-c3ccccn3)c(Nc3ccccc3C)n2c1,"inconclusive: 29.1 µM [falling, single point]",–
